Earlier results in US20130189714A1, “METHOD FOR THE DETECTION AND/OR QUANTIFICATION OF THE INTERACTION OF PLATELETS WITH INTERACTION PARTNERS” (SANOFI, priority 2010, published 2013).
At least one compound was matched to its structure with a doubt left. Residues, ends and D or L forms follow the SMILES beside them.

The chains behind the UniProt entries cited, without tags or fusion partners. Residues count along the entry.
UniProt P07359, 17-652: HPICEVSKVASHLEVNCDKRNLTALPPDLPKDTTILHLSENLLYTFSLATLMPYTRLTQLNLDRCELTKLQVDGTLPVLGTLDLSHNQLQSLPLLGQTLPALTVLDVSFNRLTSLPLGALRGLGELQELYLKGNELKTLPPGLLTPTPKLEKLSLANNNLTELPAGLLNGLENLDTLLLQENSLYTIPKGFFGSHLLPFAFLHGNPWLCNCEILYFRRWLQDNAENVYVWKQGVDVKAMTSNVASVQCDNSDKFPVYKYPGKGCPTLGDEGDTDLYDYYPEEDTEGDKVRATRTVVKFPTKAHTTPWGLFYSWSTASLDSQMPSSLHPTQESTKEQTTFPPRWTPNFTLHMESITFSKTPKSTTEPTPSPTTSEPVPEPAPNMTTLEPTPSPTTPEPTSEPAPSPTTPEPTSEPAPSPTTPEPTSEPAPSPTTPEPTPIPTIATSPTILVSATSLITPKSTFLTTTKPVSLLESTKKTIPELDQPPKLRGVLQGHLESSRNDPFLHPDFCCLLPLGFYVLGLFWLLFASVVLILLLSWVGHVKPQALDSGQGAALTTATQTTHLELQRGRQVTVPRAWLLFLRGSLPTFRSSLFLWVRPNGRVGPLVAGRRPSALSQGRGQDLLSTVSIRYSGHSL

Biological target: vWF-A1 and GPIb interaction (Homo sapiens, UniProt P07359)
Conditions: ELISA technology, Benard et al. Biochemistry 2008; read-out: IC50, inhibition of the interaction between vWF-A1 and GPIb; cited from earlier work

Structure (SMILES): CSCC[C@@H]1NC(=O)[C@H](CCCNC(=N)N)NC(=O)[C@H](CCC(=O)O)NC(=O)[C@H]([C@@H](C)O)NC(=O)[C@@H](N)CSSC[C@@H](C(=O)O)NC(=O)[C@H](CC(C)C)NC(=O)[C@H](CC(N)=O)NC(=O)[C@H](Cc2c[nH]cn2)NC(=O)[C@H](CC(C)C)NC(=O)[C@H](C)NC1=O [OS-1] (HELM PEPTIDE1{C.T.E.R.M.A.L.H.N.L.C}$PEPTIDE1,PEPTIDE1,1:R3-11:R3$$$V2.0; N-terminus and C-terminus assumed)
- IC50: 510 nM
